Screening data, single-dose tests

A: 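Phenotypic screen: M. tuberculosis growth, cholesterol and DPPC medium, 4 days; the read-out is not stated. Concentration: 500 µM. The record gives no direction; compounds that gave an IC50 in retests scored well above the rest, so higher reads as more growth inhibition. Of about 18,000 compounds tested this way, about 900 (5%) reached 50% or more in at least one test.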
B: 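Growth of Mycobacterium tuberculosis over 3 days (7H9 medium with glucose and tyloxapol); the read-out is not stated. Compounds at 500 µM. Direction is inferred from retests: higher values go with more growth inhibition. Size under these conditions: about 18,000 compounds, about 1,400 of them at 50% or above in at least one test.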

Each number is a percent effect as filed. The controls that fix the scale are not given in the record; negative values are as filed. Compounds were drawn at random from those tested, without regard to their results.

For Nc1cnccc1NCCN1CCOCC1 the result was A: -3.564%; B: 2.756%.
For CCc1nc(CNC(=O)Cc2nonc2C)cs1 the result was A: 6.275%; B: 20.53%.
For CNCC1(O)CCc2ccccc21 (stereo not given) the result was A: 5.867%; B: 2.869%.
For Cc1nnc(SCc2csc(C3CC3)n2)n1CC(N)=O the result was A: 6.842%; B: 26.34%.
For CCC(=O)NCCNc1ccc2ccccc2n1 the result was A: 11.9%; B: 31.55%.
For Cc1cnn(CC(C)NCCn2cncn2)c1 (stereo not given) the result was A: 5.99%; B: -0.05876%.
For OC(Cn1nnc(-c2ccsc2)n1)CC(F)(F)F (stereo not given) the result was A: 88.73%; B: 81.89%.
For CNC1CCN(C(C)c2ccccn2)CC1 (stereo not given) the result was A: -2.144%; B: -0.6144%.
For Cc1cccc2c1N(C(=O)CCc1nnc[nH]1)CC2 the result was A: -8.453%; B: -1.464%.
For COCCN(CCOC)c1ccnc(C#N)c1 the result was A: -0.944%; B: 3.868%.
For CSc1cc(NC(=O)NCCc2ccccn2)ccn1 the result was A: 60.08%; B: 65.49%.
For CC(C)N1CCC(c2nc(-c3cccnn3)no2)C1 (stereo not given) the result was A: 11.09%; B: 12.19%.
For CN(C)c1ncccc1C(=O)NCC[C@@H]1CCCN1 the result was A: 4.078%; B: 0.6256%.
For Cn1c(SCCCO)nnc1-c1ccccc1F the result was A: 53.89%; B: 45.62%.
For CCC(NS(C)(=O)=O)c1cnn(CC)c1 (stereo not given) the result was A: -2.43%; B: 1.254%.
For CC(C)C(NC(N)=O)C(=O)NCc1csc(Br)c1 (stereo not given) the result was A: -4.514%; B: 2.95%.
For NC(=O)C[C@H](N)c1ccccc1 the result was A: -16.81%; B: -7.332%.
For CC1(C(=O)NCCN2CCCCC2)CCCCC(=O)N1 (stereo not given) the result was A: 10.05%; B: 13.72%.
For NCC1(NS(=O)(=O)c2cccc3nonc23)CCCC1 the result was A: 36.33%; B: 34.41%.
For Cc1cc(N2CCC3(CC2)OCCO3)nc(C)n1 the result was A: 7.296%; B: 1.575%.
For CNCC(C)(C)CO the result was A: 2.001%; B: 10.81%.
For Cc1cncc(C(=O)N2CCCS2(=O)=O)c1 the result was A: 4.161%; B: 6.411%.
For CC(=O)c1cc[nH]c(=O)c1 the result was A: -2.167%; B: -1.818%.
For CCOC(=O)CNC(C)=O the result was A: -6.095%; B: 0.09107%.
For Cn1c(=O)[nH]c(=O)c2ccc(C(=O)N3CCCC3)nc21 the result was A: -18.39%; B: 5.28%.

For reference, 2 entries once more:

| compound | A | B |
|---|---|---|
| `CC(=O)c1cc[nH]c(=O)c1` | -2.167 | -1.818 |
| `CNC1CCN(C(C)c2ccccn2)CC1` (stereo not given) | -2.144 | -0.6144 |

Measurements from “University of Dundee, Small-Polar-MMV Screening Library” (2021), ChEMBL document CHEMBL3988442.